Results from the supplement of paper PMC12819154, “High-throughput peptide-centric local stability assay extends protein–ligand identification to membrane proteins, tissues and bacteria” (Nature Structural & Molecular Biology, 2025).
The other results are listed elsewhere or left out. Most values lie at the level of the controls, where differences are scatter.

Sequences of proteins named here, by UniProt entry; tags and fusion partners are left off. A change or cut given only in a name is not applied to a line headed by its entry.
UniProt O75419: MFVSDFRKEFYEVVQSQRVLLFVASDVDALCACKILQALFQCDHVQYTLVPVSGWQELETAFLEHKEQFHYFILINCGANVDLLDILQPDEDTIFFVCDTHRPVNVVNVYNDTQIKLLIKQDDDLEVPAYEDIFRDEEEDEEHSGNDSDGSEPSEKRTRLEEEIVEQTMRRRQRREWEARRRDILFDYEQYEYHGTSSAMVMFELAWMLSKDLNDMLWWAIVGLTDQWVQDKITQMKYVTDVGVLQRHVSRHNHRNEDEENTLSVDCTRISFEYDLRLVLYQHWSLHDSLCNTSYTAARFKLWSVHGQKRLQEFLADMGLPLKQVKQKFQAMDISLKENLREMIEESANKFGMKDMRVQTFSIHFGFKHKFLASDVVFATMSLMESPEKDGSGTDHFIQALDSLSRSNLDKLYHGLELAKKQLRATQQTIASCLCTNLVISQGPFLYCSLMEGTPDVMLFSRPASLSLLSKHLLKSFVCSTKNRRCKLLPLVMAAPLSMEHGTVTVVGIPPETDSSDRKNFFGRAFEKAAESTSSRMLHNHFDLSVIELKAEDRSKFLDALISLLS
UniProt O75155: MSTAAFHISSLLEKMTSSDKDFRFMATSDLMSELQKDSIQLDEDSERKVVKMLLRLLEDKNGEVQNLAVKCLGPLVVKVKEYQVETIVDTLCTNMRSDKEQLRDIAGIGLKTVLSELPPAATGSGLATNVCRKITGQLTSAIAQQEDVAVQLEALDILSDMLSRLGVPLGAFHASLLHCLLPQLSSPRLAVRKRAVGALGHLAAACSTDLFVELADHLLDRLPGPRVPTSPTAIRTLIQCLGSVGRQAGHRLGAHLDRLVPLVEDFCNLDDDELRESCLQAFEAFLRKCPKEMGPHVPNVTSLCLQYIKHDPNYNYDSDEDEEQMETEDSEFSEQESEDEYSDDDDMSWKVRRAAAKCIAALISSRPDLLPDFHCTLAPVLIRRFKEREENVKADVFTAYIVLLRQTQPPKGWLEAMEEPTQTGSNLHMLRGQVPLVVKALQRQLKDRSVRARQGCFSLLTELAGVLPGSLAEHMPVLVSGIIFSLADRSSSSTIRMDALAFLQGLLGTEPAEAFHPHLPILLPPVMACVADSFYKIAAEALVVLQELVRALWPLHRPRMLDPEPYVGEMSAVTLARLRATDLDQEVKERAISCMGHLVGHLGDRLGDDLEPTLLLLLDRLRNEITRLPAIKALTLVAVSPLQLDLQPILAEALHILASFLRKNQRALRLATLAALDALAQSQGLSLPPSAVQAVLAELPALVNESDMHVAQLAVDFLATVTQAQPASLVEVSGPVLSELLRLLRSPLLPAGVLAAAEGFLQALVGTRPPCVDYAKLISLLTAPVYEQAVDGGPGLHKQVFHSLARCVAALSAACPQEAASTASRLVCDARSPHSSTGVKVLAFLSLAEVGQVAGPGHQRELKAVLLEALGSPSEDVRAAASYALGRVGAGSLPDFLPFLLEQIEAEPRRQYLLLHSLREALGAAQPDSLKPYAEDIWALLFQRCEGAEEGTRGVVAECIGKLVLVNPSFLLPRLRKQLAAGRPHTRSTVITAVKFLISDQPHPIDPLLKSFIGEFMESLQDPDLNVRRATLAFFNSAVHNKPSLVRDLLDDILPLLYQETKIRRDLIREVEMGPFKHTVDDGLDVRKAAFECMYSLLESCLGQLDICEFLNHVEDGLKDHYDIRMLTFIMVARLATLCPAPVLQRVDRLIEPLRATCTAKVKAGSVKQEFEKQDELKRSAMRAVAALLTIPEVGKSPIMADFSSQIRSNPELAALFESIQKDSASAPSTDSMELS
UniProt O43739: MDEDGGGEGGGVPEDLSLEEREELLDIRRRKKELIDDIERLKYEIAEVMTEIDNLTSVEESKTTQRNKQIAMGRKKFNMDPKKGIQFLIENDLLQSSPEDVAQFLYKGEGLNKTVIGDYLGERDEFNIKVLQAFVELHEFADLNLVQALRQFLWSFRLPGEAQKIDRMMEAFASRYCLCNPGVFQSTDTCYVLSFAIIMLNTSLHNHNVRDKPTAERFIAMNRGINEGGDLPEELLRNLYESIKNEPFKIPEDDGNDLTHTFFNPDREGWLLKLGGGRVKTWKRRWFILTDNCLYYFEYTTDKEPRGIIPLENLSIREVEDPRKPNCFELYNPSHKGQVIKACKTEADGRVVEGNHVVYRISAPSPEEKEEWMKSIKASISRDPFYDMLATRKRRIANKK
UniProt O43395: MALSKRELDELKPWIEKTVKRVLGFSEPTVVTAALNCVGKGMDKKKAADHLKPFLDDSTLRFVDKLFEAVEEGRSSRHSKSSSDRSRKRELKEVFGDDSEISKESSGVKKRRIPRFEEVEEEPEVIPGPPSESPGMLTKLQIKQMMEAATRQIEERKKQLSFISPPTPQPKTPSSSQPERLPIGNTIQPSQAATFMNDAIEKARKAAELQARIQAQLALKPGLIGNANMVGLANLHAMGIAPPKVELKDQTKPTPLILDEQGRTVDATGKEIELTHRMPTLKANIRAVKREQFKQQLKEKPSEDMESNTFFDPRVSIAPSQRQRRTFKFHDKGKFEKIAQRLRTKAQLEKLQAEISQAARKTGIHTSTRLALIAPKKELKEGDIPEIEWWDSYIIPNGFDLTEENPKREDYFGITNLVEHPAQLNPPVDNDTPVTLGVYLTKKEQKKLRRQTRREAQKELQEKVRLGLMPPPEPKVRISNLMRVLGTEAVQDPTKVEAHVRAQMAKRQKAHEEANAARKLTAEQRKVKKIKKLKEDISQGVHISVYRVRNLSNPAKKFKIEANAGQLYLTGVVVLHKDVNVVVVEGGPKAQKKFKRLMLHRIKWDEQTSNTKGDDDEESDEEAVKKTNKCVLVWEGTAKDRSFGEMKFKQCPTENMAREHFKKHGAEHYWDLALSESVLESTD
UniProt O43665: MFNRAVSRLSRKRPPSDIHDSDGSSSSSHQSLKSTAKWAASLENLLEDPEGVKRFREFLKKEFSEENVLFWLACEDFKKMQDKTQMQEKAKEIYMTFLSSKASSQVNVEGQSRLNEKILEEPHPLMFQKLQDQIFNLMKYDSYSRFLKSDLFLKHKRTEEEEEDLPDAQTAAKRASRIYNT
UniProt O15550, whole entry: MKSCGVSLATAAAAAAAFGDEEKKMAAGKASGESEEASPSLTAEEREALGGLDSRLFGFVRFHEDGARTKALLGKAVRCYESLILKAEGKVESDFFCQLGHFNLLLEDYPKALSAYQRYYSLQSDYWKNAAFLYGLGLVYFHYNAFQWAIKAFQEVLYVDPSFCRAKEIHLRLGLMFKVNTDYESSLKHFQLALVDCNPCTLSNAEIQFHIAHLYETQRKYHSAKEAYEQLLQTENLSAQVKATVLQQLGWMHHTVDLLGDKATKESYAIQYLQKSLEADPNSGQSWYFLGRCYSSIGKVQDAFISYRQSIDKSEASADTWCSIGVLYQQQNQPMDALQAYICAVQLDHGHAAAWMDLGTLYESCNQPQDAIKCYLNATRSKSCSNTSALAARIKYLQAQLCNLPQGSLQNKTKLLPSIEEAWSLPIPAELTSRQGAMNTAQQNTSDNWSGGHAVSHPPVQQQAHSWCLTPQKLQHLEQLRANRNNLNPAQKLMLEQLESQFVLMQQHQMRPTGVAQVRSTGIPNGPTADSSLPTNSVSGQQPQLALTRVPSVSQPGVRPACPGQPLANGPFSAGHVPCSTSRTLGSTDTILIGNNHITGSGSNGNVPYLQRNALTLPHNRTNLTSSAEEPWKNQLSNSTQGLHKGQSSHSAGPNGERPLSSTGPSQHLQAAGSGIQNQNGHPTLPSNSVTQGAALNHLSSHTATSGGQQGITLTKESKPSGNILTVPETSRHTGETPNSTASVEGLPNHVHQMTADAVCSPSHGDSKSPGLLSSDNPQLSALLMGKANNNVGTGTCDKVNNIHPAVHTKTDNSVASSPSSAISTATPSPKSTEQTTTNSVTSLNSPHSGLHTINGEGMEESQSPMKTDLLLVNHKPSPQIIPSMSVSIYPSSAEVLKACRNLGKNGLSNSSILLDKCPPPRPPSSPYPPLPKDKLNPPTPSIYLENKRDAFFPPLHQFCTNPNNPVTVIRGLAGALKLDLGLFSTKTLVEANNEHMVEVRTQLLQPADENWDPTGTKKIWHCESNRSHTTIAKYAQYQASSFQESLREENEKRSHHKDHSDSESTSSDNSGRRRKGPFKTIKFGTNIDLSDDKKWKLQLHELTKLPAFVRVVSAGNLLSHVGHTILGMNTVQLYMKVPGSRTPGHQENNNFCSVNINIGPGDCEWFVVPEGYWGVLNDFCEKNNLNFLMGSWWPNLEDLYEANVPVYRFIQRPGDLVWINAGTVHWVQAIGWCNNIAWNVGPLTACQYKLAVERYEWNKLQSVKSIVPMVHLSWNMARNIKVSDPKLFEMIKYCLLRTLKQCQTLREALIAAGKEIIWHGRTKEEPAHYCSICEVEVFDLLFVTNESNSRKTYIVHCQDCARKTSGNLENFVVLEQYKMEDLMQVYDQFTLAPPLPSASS
UniProt O43237, whole entry: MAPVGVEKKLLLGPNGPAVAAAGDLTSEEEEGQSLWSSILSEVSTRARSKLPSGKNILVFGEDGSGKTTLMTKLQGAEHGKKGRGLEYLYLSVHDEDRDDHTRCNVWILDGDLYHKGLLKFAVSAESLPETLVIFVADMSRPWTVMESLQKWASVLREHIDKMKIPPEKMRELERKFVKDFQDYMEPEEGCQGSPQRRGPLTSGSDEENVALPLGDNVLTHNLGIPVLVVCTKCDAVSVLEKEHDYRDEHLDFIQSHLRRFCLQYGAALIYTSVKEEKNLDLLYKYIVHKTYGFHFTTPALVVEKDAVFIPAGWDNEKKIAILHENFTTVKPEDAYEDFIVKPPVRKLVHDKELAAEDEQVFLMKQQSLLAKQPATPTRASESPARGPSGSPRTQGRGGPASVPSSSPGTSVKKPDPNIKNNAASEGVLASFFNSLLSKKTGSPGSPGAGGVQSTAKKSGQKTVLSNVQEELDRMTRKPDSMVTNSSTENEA
UniProt O75382: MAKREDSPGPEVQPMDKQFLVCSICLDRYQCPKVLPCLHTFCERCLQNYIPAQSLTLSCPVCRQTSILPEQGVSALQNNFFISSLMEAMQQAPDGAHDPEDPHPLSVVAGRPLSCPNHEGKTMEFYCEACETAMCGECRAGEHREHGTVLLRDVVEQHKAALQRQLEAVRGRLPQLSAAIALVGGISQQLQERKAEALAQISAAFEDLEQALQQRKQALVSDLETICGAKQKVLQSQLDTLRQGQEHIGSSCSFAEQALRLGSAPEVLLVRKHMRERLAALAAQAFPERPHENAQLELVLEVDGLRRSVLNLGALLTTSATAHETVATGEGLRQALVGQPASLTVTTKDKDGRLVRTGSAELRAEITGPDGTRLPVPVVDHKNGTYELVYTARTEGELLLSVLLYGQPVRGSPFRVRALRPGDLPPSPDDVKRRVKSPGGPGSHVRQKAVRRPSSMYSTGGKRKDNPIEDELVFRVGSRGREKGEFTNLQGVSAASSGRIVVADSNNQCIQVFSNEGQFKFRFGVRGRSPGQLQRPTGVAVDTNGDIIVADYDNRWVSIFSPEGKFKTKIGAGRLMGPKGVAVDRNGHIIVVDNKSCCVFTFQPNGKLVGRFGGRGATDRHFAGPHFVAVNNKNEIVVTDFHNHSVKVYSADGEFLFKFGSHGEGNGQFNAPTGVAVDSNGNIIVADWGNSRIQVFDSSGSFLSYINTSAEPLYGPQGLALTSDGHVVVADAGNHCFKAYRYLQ
UniProt O75152: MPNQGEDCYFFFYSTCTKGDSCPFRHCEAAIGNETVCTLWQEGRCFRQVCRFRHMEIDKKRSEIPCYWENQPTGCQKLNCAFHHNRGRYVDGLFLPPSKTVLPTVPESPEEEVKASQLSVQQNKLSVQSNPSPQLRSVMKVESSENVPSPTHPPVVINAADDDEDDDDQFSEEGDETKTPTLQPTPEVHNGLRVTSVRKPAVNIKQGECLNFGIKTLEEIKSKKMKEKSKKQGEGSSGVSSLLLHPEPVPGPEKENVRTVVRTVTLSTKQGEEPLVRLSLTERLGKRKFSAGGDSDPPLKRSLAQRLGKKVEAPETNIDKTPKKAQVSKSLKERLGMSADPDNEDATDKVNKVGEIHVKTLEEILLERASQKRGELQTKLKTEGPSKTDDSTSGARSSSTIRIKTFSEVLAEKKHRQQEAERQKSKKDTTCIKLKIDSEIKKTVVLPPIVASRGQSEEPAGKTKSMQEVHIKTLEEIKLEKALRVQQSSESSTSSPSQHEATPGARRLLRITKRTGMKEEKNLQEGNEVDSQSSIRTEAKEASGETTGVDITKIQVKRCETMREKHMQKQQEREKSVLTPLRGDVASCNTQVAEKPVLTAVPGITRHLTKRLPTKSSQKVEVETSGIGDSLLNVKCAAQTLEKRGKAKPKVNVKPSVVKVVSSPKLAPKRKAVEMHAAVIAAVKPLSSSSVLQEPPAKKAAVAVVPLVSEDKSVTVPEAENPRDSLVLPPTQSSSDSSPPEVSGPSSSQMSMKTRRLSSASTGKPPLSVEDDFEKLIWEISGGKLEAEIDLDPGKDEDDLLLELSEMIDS

compound: Cc1nc(Nc2ncc(C(=O)Nc3c(C)cccc3Cl)s2)cc(N2CCN(CCO)CC2)n1 [dasatinib]; assay: log2 fold change of tryptic peptide abundance, ligand vs vehicle (limited proteolysis) (log2 ratio); higher = more trypsin-susceptible (destabilized); settings: ligand concentration: 5 uM; sample: K562 cleared lysate

Row | Target | log2 fold change
1 | KIF1C (peptide sequence: AHIDKLTGILQEVK, peptide start residue: 835) (UniProt O43896) | -0.396
2 | UniProt O75419 (peptide sequence: SNLDKLYHGLELAK, peptide start residue: 407) | -0.125
3 | SLC19A2 (peptide sequence: AAAAAATVLLR, peptide start residue: 11) (UniProt O60779) | -0.132
4 | PTCD1 (peptide sequence: EADDGCALGGR, peptide start residue: 690) (UniProt O75127) | -0.376
5 | UniProt O43318 (peptide sequence: KQLEVIR, peptide start residue: 590) | 0.289
6 | HTATSF1 (peptide sequence: TAEEPPQEKAPEPTDAR, peptide start residue: 96) (UniProt O43719) | 0.191
7 | LIAS (peptide sequence: KVQPDVISK, peptide start residue: 267) (UniProt O43766) | -0.123
8 | UniProt O60336 (peptide sequence: WACLGEGTTPKPR, peptide start residue: 1344) | -0.317
9 | KIF21B (peptide sequence: KVVHVPYRDSK, peptide start residue: 316) (UniProt O75037) | 0.741
10 | CAND2 (peptide sequence: QEFEKQDELKR, peptide start residue: 1164) (UniProt O75155) | 0.145
11 | CYTH3 (peptide sequence: ELIDDIER, peptide start residue: 33) (UniProt O43739) | -0.0899
12 | TRAF3IP2 (peptide sequence: HQDQPHHQPPNR, peptide start residue: 349) (UniProt O43734) | 0.169
13 | UniProt O43829 (peptide sequence: EQIACQACGK, peptide start residue: 275) | 0.216
14 | PRPF3 (peptide sequence: EVFGDDSEISKESSGVKK, peptide start residue: 93) (UniProt O43395) | 0.132
15 | SNX3 (peptide sequence: LKESTVRR, peptide start residue: 62) (UniProt O60493) | -1.15
16 | UniProt O75153 (peptide sequence: HYILDLLR, peptide start residue: 561) | -0.287
17 | BRD4 (peptide sequence: AQAEHAEKEKER, peptide start residue: 1243) (UniProt O60885) | -0.177
18 | RGS10 (peptide sequence: KRPPSDIHDSDGSSSSSHQSLK, peptide start residue: 12) (UniProt O43665) | 0.253
19 | KDM6A (peptide sequence: SHHKDHSDSESTSSDNSGRR, peptide start residue: 1055) (UniProt O15550) | 1.25

Row | Target | log2 fold change
20 | ZBED4 (peptide sequence: LTDLPTVVTK, peptide start residue: 538) (UniProt O75132) | 0.238
21 | AKAP10 (peptide sequence: GSMFSQAMKK, peptide start residue: 612) (UniProt O43572) | -0.844
22 | UniProt O43314 (peptide sequence: QIVVGICSMAK, peptide start residue: 43) | 0.585
23 | UniProt O43310 (peptide sequence: VLPAWQGYHPMPHEVEIAHTK, peptide start residue: 164) | -0.471
24 | HTRA2 (peptide sequence: VTAGISFAIPSDR, peptide start residue: 325) (UniProt O43464) | 0.179
25 | DYNC1LI2 (peptide sequence: KLVHDKELAAEDEQVFLMK, peptide start residue: 347) (UniProt O43237) | 0.519
26 | SNX2 (peptide sequence: HPTLLQDPDLR, peptide start residue: 249) (UniProt O60749) | -0.122
27 | NCK2 (peptide sequence: KGASLSNGQGSR, peptide start residue: 184) (UniProt O43639) | 0.357
28 | TRIM3 (peptide sequence: EKGEFTNLQGVSAASSGR, peptide start residue: 482) (UniProt O75382) | 0.494
29 | PRICKLE3 (peptide sequence: RPRSPPPR, peptide start residue: 499) (UniProt O43900) | -0.0899
30 | BUB1B (peptide sequence: EIELGNEDYCIKR, peptide start residue: 758) (UniProt O60566) | 0.16
31 | MRPS14 (peptide sequence: KMAYEYADER, peptide start residue: 42) (UniProt O60783) | 0.113
32 | EVI5 (peptide sequence: VLDIEKR, peptide start residue: 488) (UniProt O60447) | -0.238
33 | EDF1 (peptide sequence: ETEELHHDR, peptide start residue: 64) (UniProt O60869) | 0.129
34 | ZC3H11A (peptide sequence: TEGPSKTDDSTSGAR, peptide start residue: 382) (UniProt O75152) | -0.72
35 | BNIP3L (peptide sequence: DHSSQSEEEVVEGEKEVEALKK, peptide start residue: 115) (UniProt O60238) | 0.345
36 | OIP5 (peptide sequence: GDFCGGTER, peptide start residue: 18) (UniProt O43482) | 0.101
37 | SNAP91 (peptide sequence: FIQYLASR, peptide start residue: 93) (UniProt O60641) | -0.227

Taken from the results shown for reference:
Row | Target | log2 fold change
27 | NCK2 (peptide sequence: KGASLSNGQGSR, peptide start residue: 184) (UniProt O43639) | 0.357
28 | TRIM3 (peptide sequence: EKGEFTNLQGVSAASSGR, peptide start residue: 482) (UniProt O75382) | 0.494
